Laboratory results from paper PMC7558399, “In Vitro Selective Growth-Inhibitory Activities of Phytochemicals, Synthetic Phytochemical Analogs, and Antibiotics against Diarrheagenic/Probiotic Bacteria and Cancer/Normal Intestinal Cells” (Pharmaceuticals, 2020).
Values after ≈ are worked out from the molar mass of the structure shown.

Key:
[1] = tested on: Caco-2 (ATCC HTB 37) intestinal cancer cells; test: MTT cytotoxicity assay, Caco-2; type: cell-based; settings: Homo sapiens, 72 h
[2] = tested on: intestinal cancer cells (HT29 and Caco-2); test: MTT cytotoxicity assay, mean for intestinal cancer cells; type: cell-based

O=C(O)c1cn(C2CC2)c2cc(N3CCNCC3)c(F)cc2c1=O [CP, ciprofloxacin] showed an IC50 [1] of 69.9 ± 4.9 µg/mL (≈ 211 µM), an IC80 ([1]; read-out: IC80 ± SD (80% inhibitory concentration of proliferation)) of over 512 µg/mL and an IC50 ([2]; mean of HT29 and Caco-2, >512 replaced with 1024, read-out: x¯ -CC ± SD: mean IC50 for intestinal cancer cells) of 100 ± 30 µg/mL (≈ 302 µM). The IC80 ([2]; read-out: x¯ -CC ± SD: mean IC80 for intestinal cancer cells) was over 512 µg/mL.
